PubChem BioAssay AID1224826 | NIAID, 2016
Assay: 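Regulators of Tlr4 signalling leading to Tnf-alpha expression in macrophages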 (primary screen). Cell system: RAW264.7 G9 macrophages from mouse bearing reporters for p65 (GFP) and the Tnf promoter (mCherry). Knock-down reagent: siRNA pool against mouse genes, 100 nM. Time to read-out: 16 h of LPS stimulation, after 2 days of siRNA transfection. Conditions: bacterial lipopolysaccharide (Salmonella minnesota R595), 10 ng/ml. Read-out: 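Nuclear mCherry signal of the Tnf promoter reporter measured by imaging after background removal, scaled to each plate median and turned into robust z-scores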. Direction: Tnf reporter robust z-score: higher = stronger Tnf promoter reporter signal after LPS. Active means: 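a well counts as active at a score of -1.3 or below (Tlr4 knock-down control median) or above 3 (raised signal); controls and wells holding fewer than 50 cells are excluded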. Calls: active = Tnf reporter clearly lowered or raised; inactive = no clear change in Tnf reporter.
This is one part, drawn at random, of about 17,000 reagents. About 1,110 of them (6.6%) were called active. 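Active means lowered or raised reporter signal; replicate intensities are raw and not normalised per plate.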 Unmarked entries are inactive. Further read-outs or replicates are left out here. No sequences are given here.

gene knocked down | Tnf reporter robust z-score | fewer than 50 cells in well
Gm16938 (GeneID 330599) | – | fewer than 50 cells per well; well left out of calls
Myod1 (GeneID 17927) | -0.11 | enough cells in well
Sema7a (GeneID 20361) | – | fewer than 50 cells per well; well left out of calls
Get4 (GeneID 67604) | 2.3 | enough cells in well
Fbln5 (GeneID 23876) | 1.09 | enough cells in well
Itga2 (GeneID 16398) | -0.03 | enough cells in well
Ddx54 (GeneID 71990) | -0.45 | enough cells in well
Ctsm (GeneID 64139) | -0.44 | enough cells in well
Oosp1 (GeneID 170834) | 2.22 | enough cells in well
Ruvbl2 (GeneID 20174) | 0.12 | enough cells in well
Sppl3 (GeneID 74585) | – | fewer than 50 cells per well; well left out of calls
Pla2g2d (GeneID 18782) | -0.08 | enough cells in well
Usb1 (GeneID 101985) | 0.32 | enough cells in well
Insig2 (GeneID 72999) | 0.59 | enough cells in well
Gja1 (GeneID 14609) | 0.78 | enough cells in well
4933402J07Rik (GeneID 330820) | -0.14 | enough cells in well
Hoxd11 (GeneID 15431) | 0.22 | enough cells in well
Figla (GeneID 26910) | -0.79 | enough cells in well

In a second layout: 2 of the entries above.
{"gene knocked down":"Myod1 (GeneID 17927)","Tnf reporter robust z-score":-0.11,"fewer than 50 cells in well":"enough cells in well"}
{"gene knocked down":"Sema7a (GeneID 20361)","fewer than 50 cells in well":"fewer than 50 cells per well; well left out of calls"}

Continued:
gene knocked down | Tnf reporter robust z-score | fewer than 50 cells in well
Mdk (GeneID 17242) | -1.29 | enough cells in well
Tlr6 (GeneID 21899) | -0.67 | enough cells in well
Tff3 (GeneID 21786) | -0.64 | enough cells in well
Slco2a1 (GeneID 24059) | -0.42 | enough cells in well
Sowahc (GeneID 268301) | – | fewer than 50 cells per well; well left out of calls
Sdr42e1 (GeneID 74032) | – | fewer than 50 cells per well; well left out of calls
Cln6 (GeneID 76524) | -0.81 | enough cells in well
Dmap1 (GeneID 66233) | 1.33 | enough cells in well
Dnd1 (GeneID 213236) | -0.54 | enough cells in well
Loxl4 (GeneID 67573) | 1.1 | enough cells in well
Zfp110 (GeneID 65020) | -1.44 (active) | enough cells in well
Capns1 (GeneID 12336) | -0.22 | enough cells in well
Btn1a1 (GeneID 12231) | -0.31 | enough cells in well
Kri1 (GeneID 215194) | -0.41 | enough cells in well
Kcnh5 (GeneID 238271) | -0.66 | enough cells in well
Lrrc9 (GeneID 78257) | 2.27 | enough cells in well
Osbpl11 (GeneID 106326) | 0.35 | enough cells in well
Sumo3 (GeneID 20610) | 1.61 | enough cells in well
Msl1 (GeneID 74026) | 0.55 | enough cells in well
Dcaf15 (GeneID 212123) | – | fewer than 50 cells per well; well left out of calls
Opn1sw (GeneID 12057) | 1.54 | enough cells in well
Lsm5 (GeneID 66373) | 2.63 | enough cells in well
